Source: patent US20230023092A1, “TREATMENT OF DEPRESSION AND OTHER VARIOUS DISORDERS WITH PSILOCYBIN” (COMPASS […], priority 2019, published 2023)
Entries after “also recorded” stand apart in the source; their conditions may differ. At least one compound was matched to its structure with a doubt left.

Tests used:
healthy subjects [1] = assay: CANTAB Spatial Working Memory (SWMBE, SWMS); format: in vivo, human
healthy subjects [2] = assay: Symptom Checklist-90 Item (SCL-90); format: in vivo, human; settings: 10 mg and 25 mg; Day 7 or Day 84
Source text: In some embodiments, the Symptom Checklist-90 item (SCL-90) questionnaire is used to evaluate the safety and/or efficacy of psilocybin. The SCL-90 is a relatively brief self-report psychometric instrument designed to evaluate a broad range of psychological problems and symptoms of psychopathology. In some embodiments, the SCL-90 is used to assess somatization, obsessive-compulsive behaviors, interpersonal sensitivity, depression, anxiety, hostility, phobic anxiety, paranoid ideation, and psychoticism of a subject treated according to the methods of the disclosure. The 90 items in the questionnaire are scored on a 5-point Likert scale, indicating the rate of occurrence of the symptom during the time reference. In some embodiments, after treating according to the methods of the disclosure, a subject's SCL-90 score decreases by about 5% to about 100%, for example, by about 5%, about 10%, about 15%, about 20%, about 25%, about 30%, about 35%, about 40%, about 45%, about 50%, about 55%, about 60%, about 65%, about 70%, about 75%, about 80%, about 85%, about 90%, about 95%, or about 100%.
(§1) The Neuroticism Extraversion Openness-Five Factor Inventory (NEO-FFI) and Symptom Checklist-90 Item (SCL-90) were administered. Details of the MMRM applied to the change from baseline scores for the NEO-FFI and SCL-90 are provided below in Table 2Q.

healthy subjects [3] = assay: CANTAB global composite score; format: in vivo, human
Procedure: The following list of outcome measures are non-exhaustive. • a. The short-term change from Baseline (Day −1 [Visit 2]) to Day 7 (Visit 5) in cognitive measures of attention, spatial and working memory and executive function was measured by a composite score of the CANTAB Panel (Spatial Working Memory [SWM], Rapid Visual Information Processing [RVP], Paired Associates Learning [PAL]). • b. The short-term change from Baseline (Day −1 [Visit 2]) to Day 7 (Visit 5) in Social Cognition Panel scales (Pictorial Empathy Test [PET], Reading the Mind in the Eyes Test [RMET], Toronto Empathy Questionnaire [TEQ], Social Value Orientation [SVO], Scale of Social Responsibility [SSR]). • c. The change from Baseline (Day −1 [Visit 2]) to Day 28 (Visit 6) in cognitive measures of attention, spatial and working memory and executive function as measured by a composite score of the CANTAB Panel (SWM, RVP, PAL). • d. The long-term change from Baseline (Day −1 [Visit 2]) to Day 84 (Visit 7) in Social Cognition Panel scales (PET, RMET, TEQ, SVO, SSR). • e. Dose-related differences between cognitive effects of psilocybin at Baseline (Day −1 [Visit 2]), Day 7 (Visit 5) and Day 28 (Visit 6), as measured by a composite score of the CANTAB Panel (SWM, RVP, PAL). • f. Dose-related differences between psychological effects of psilocybin at Baseline (Day −1 [Visit 2]), Day 7 (Visit 5) and Day 84 (Visit 7), as measured by Social Cognition Panel scales (PET, RMET, TEQ, SVO, SSR). • g. Differences in cognitive effects of psilocybin between psilocybin-naïve and experienced subjects at Baseline (Day −1 [Visit 2]), Day 7 (Visit 5) and Day 28 (Visit 6), as measured by a composite score of the CANTAB Panel (SWM, RVP, PAL). • h. Differences in Positive and Negative Affect Schedule (PANAS) after study drug administration on Day 0 (Visit 3). • i. Differences between psilocybin and placebo in the Emotion Recognition Test (ERT), Intra-Extra Dimensional Set Shift (IED), One Touch Stockings (OTS), Verbal Fluency and Digit Span Forward at Day 7 (Visit 5). • j. A composite score of the CANTAB Panel, including the following tests: • i. Spatial Working Memory (SWM) (performed at Visit 2, Visit 5, and Visit 6). • ii. Rapid Visual Information Processing (RVP) (performed at Visit 2, Visit 5, and Visit 6). • iii. Paired Associates Learning (PAL) (performed at Visit 2, Visit 5, and Visit 6). • k. Cognitive Flexibility Panel • i. Emotion Recognition Task (ERT) (performed at Visit 5). • ii. Intra-Extra Dimensional Set Shift (IED) (performed at Visit 5). • iii. One Touch Stockings (OTS) (performed at Visit 5). • iv. Verbal Fluency (performed at Visit 5). • v. Digit Span Forward (performed at Visit 5). • l. […] Reading the Mind in the Eyes Test (RMET) (performed at Visit 2, Visit 5, and Visit 7). • iii. […]

healthy subjects [4] = assay: NEO-Five Factor Inventory (NEO-FFI); format: in vivo, human; settings: 10 mg and 25 mg; Day 7 or Day 84
Procedure: In some embodiments, the NEO-Five Factor Inventory (NEO-FFI) test is used to evaluate the safety and/or efficacy of psilocybin. The NEO-FFI evaluates 5 broad domains of personality—Neuroticism, Extroversion, Openness, Agreeableness and Conscientiousness.
as §1

healthy subjects [5] = assay: CANTAB Emotional Recognition Task (ERTPC); format: in vivo, human; settings: 10 mg and 25 mg; Day 7
[6] = Solubility and hygroscopicity of psilocybin (Polymorph A or A′); format: physicochemical; settings: form Polymorph A or A′
Source text: In some embodiments, the psilocybin of the disclosure in the form Polymorph A or A′ has the general properties illustrated in Table D.

CN(C)CCc1c[nH]c2cccc(OP(=O)(O)O)c12 [Psilocybin, psilocybin]
SWMBE performance Baseline to Day 28 versus placebo (healthy subjects [1]; 10 mg): improved less, on average, with a higher error score at Day 28 than placebo | SWMS LS mean difference versus placebo (healthy subjects [1]; 10 mg and 25 mg, Day 7): performed similar to placebo | SWMS LS mean difference versus placebo (healthy subjects [1]; 10 mg, Day 28): slightly worse than placebo | SWMS LS mean difference versus placebo (healthy subjects [1]; 25 mg, Day 28): slightly better than the placebo | Effect on changes in SCL 90 scales (healthy subjects [2]): no detectable effect | CANTAB global composite score, Baseline to Day 28 (healthy subjects [3]; 10 mg and 25 mg): improvement in performance over time | Performance on CANTAB tasks as a result of psilocybin exposure (healthy subjects [3]; 10 mg and 25 mg, 28-day): no evidence of improvement or deterioration in performance | CANTAB composite, LS means by prior psilocybin exposure (healthy subjects [3]; 10 mg, subjects previously exposed to psilocybin only): improvement from Baseline to Day 28 | CANTAB composite, LS means by prior psilocybin exposure (healthy subjects [3]; 25 mg): improvement to Day 28 was observed irrespective of previous psilocybin exposure | Effect on changes in NEO-FFI scales (healthy subjects [4]): no detectable effect | ERTPC difference versus placebo and between doses (healthy subjects [5]): No evidence of a difference; also recorded: No significant difference in performance | Hygroscopicity [6]: Psilocybin forms Hydrate A at high humidity
